Test results reported in patent publication US12048320B2, “Process for preparing high density, thermostable polysaccharide beads as food additives” (DNA CATCHER, S.L, priority 2019, dated 2024).
For some assays here: At least one structure is not confirmed: it was looked up by name or label, or the drawing left a doubt. Some results were stated once for a whole list of compounds, not compound by compound.

How the values were obtained:
[1] = End point (maximum) amount of water miscible solvent in hydrated DB; type: physicochemical; settings: MV alginate, 1:1.25 alginate:water
Procedure: Hydrated DB beads were prepared as example 1 using MV alginate. In this case, the water was used to achieve alginate within the hydrated beads to be 44.44% (w/w), which means 125 mL water and 100 g MV alginate (1:1.25 alginate:water ratio). WMS were propylene glycols (PG), glycerol, polyethylene glycol (PEG400) and absolute ethanol. Then, different amounts of volatile and non-volatile water miscible solvents (WMS) were added slowly to the hydrated beads under high shear mixing. The end point (the optimized amount of WMS) was calculated by monitoring physical properties of hydrated beads including size and hardness as described in examples 1 & 2. […] Beads then were cross-linked, washed and dried as described in example 1.
The end point (end point ratio by weight (alginate:water:WMS)) in table 14 means the maximum amount of WMS that allows to obtain acceptable bead hardness (more than 1 kg/cm^2/g beads) and acceptable size range of both wet and dry beads according to the established criteria in table 3 and 4, example 1.

[2] = Limonene loss post baking of pancakes (gas chromatography); type: physicochemical
Procedure: The amount of D-limonene was assayed pre and post baking. For this purpose, 10 ml of distilled water was added to 5 g pancakes. Then, 30 ml methanol was added and the mixture was centrifuged at 3000 rpm for 20 min for further assay by gas chromatography. The % of lost limonene post packing as the following equation and expressed as the % of lost limonene post packing (w/w): % of lost limonene post baking (w/w)=(Initial amount added before backing−Residual amount of limonene found in baked pancakes)[…] Results

CC(O)CO (centres unmarked) [Propylene glycols (PG), propylene glycols]
End point ratio by weight (alginate:water:WMS) [1]: 1:1.25:1.3

C=C(C)[C@H]1CC=C(C)CC1 [Free limonene, (4R)-1-methyl-4-(1-methylethenyl)-cyclohexene]
flavor retention post baking [2]: 10-12%
